Measurements published in patent US9393308B2, “Micelle structure of nano preparation for diagnosis or treatment of cancer disease and preparation method thereof” (KOREA ADVANCED INSTITUTE OF SCIENCE AND TECHNOLOGY, priority 2013, dated 2016).

Test system: mitochondrion of U251MG, which is a human malignant glioma cell
Experiment: Distribution pattern of nanopreparation in intracellular organelles (confocal/multiphoton laser scanning microscopy)
Format: cell-based
Conditions: 5 μM, 2 hours, Mito Tracker deep red FM

Cc1cc(O)c2c(=O)c3c(O)cc(O)c4c5c(O)cc(O)c6c(=O)c7c(O)cc(C)c8c1c2c(c34)c(c78)c65 [Comparative Example 2, Hypericin]
distribution of hypericin in mitochondria (image): coexist only in a portion of mitochondria
